Some entries share one result that the patent states for a list of compounds. At least one structure is not confirmed: it was looked up by name or label, or the drawing left a doubt.
Columns and labels:
[1] = system: Myzus persicae; assay: Test for control efficacy on Myzus persicae (foliar application, potted Chinese cabbage); type: in vivo; conditions: 500 ppm, foliar application to Chinese cabbage plants, 6 days after application
[2] = system: Plutella xylostella; conditions: 500 ppm, seedlings with laid eggs dipped about 30 seconds, 25° C., 6 days after dip treatment
[3] = system: Laodelphax striatelius; conditions: 500 ppm, rice seedlings dipped 30 seconds, 3rd-instar larvae, 8 days after inoculation

CN(C)S(=O)(=O)c1cc(-c2ccc(OC(F)(F)F)cc2)cnc1-c1nc2cc(C(F)(F)F)cnc2n1C [Compound 1-35]
control efficacy (control rate), activity level [1]: A (the control rate is 100%) | insecticidal efficacy (corrected mortality rate), activity level [2]: A (the corrected mortality rate is 100%) | insecticidal efficacy (corrected mortality rate), activity level [3]: A (the corrected mortality rate is 100%)

CNS(=O)(=O)c1cccnc1-c1nc2ccc(C(F)(F)F)cn2n1 [Compound 5-14]
control efficacy (control rate), activity level [1]: A (the control rate is 100%) | insecticidal efficacy (corrected mortality rate), activity level [2]: A (the corrected mortality rate is 100%) | insecticidal efficacy (corrected mortality rate), activity level [3]: A (the corrected mortality rate is 100%)

CNS(=O)(=O)c1cc(-c2ccc(F)cc2)cnc1-c1nc2cc(C(F)(F)C(F)(F)F)nnc2n1C [Compound 2-5]
control efficacy (control rate), activity level [1]: A (the control rate is 100%) | insecticidal efficacy (corrected mortality rate), activity level [2]: A (the corrected mortality rate is 100%) | insecticidal efficacy (corrected mortality rate), activity level [3]: A (the corrected mortality rate is 100%)

CN(C)S(=O)(=O)c1cc(-c2cnn(C)n2)cnc1-c1nc2cc(C(F)(F)F)cnc2n1C [Compound 1-66]
control efficacy (control rate), activity level [1]: A (the control rate is 100%) | insecticidal efficacy (corrected mortality rate), activity level [2]: A (the corrected mortality rate is 100%) | insecticidal efficacy (corrected mortality rate), activity level [3]: A (the corrected mortality rate is 100%)

CN(C)S(=O)(=O)c1cc(-c2cc(F)c(F)c(F)c2)cnc1-c1nc2cc(C(F)(F)F)cnc2n1C [Compound 1-44]
control efficacy (control rate), activity level [1]: A (the control rate is 100%) | insecticidal efficacy (corrected mortality rate), activity level [2]: A (the corrected mortality rate is 100%) | insecticidal efficacy (corrected mortality rate), activity level [3]: A (the corrected mortality rate is 100%)

O=S(=O)(c1cc(-c2ccc(F)cc2)cnc1-c1nc2cc(C(F)(F)F)ccn2n1)N1CCC1 [Compound 5-6]
control efficacy (control rate), activity level [1]: A (the control rate is 100%) | insecticidal efficacy (corrected mortality rate), activity level [2]: A (the corrected mortality rate is 100%) | insecticidal efficacy (corrected mortality rate), activity level [3]: A (the corrected mortality rate is 100%)

CN(C)S(=O)(=O)c1cc(-c2nccc(C(F)(F)F)n2)cnc1-c1nc2cc(C(F)(F)F)cnc2n1C [Compound 1-52]
control efficacy (control rate), activity level [1]: A (the control rate is 100%) | insecticidal efficacy (corrected mortality rate), activity level [2]: A (the corrected mortality rate is 100%) | insecticidal efficacy (corrected mortality rate), activity level [3]: A (the corrected mortality rate is 100%)

CN(C)S(=O)(=O)c1cc(-c2cccc(C(F)(F)F)c2)cnc1-c1nc2cc(C(F)(F)F)cnc2n1C [Compound 1-12]
control efficacy (control rate), activity level [1]: A (the control rate is 100%) | insecticidal efficacy (corrected mortality rate), activity level [2]: A (the corrected mortality rate is 100%) | insecticidal efficacy (corrected mortality rate), activity level [3]: A (the corrected mortality rate is 100%)

CN(C)S(=O)(=O)c1cc(-c2ccc(Cl)s2)cnc1-c1nc2cc(C(F)(F)F)cnc2n1C [Compound 1-58]
control efficacy (control rate), activity level [1]: A (the control rate is 100%) | insecticidal efficacy (corrected mortality rate), activity level [2]: A (the corrected mortality rate is 100%) | insecticidal efficacy (corrected mortality rate), activity level [3]: A (the corrected mortality rate is 100%)

CNS(=O)(=O)c1cc(OC)cnc1-c1nc2cc(C(F)(F)F)cnc2n1C [Compound 1-23]
control efficacy (control rate), activity level [1]: A (the control rate is 100%) | insecticidal efficacy (corrected mortality rate), activity level [2]: A (the corrected mortality rate is 100%) | insecticidal efficacy (corrected mortality rate), activity level [3]: A (the corrected mortality rate is 100%)

CN(C)S(=O)(=O)c1cc(-c2cnc(Cl)cn2)cnc1-c1nc2cc(C(F)(F)F)cnc2n1C [Compound 1-54]
control efficacy (control rate), activity level [1]: A (the control rate is 100%) | insecticidal efficacy (corrected mortality rate), activity level [2]: A (the corrected mortality rate is 100%) | insecticidal efficacy (corrected mortality rate), activity level [3]: A (the corrected mortality rate is 100%)

Cc1csc(-c2cnc(-c3nc4cc(C(F)(F)F)cnc4n3C)c(S(=O)(=O)N(C)C)c2)c1 [Compound 1-59]
control efficacy (control rate), activity level [1]: A (the control rate is 100%) | insecticidal efficacy (corrected mortality rate), activity level [2]: A (the corrected mortality rate is 100%) | insecticidal efficacy (corrected mortality rate), activity level [3]: A (the corrected mortality rate is 100%)

CN(C(=O)OC(C)(C)C)c1cnc(-c2nc3cc(C(F)(F)F)cnc3n2C)c(S(=O)(=O)N(C)C)c1 [Compound 1-20]
control efficacy (control rate), activity level [1]: A (the control rate is 100%) | insecticidal efficacy (corrected mortality rate), activity level [2]: A (the corrected mortality rate is 100%) | insecticidal efficacy (corrected mortality rate), activity level [3]: A (the corrected mortality rate is 100%)

CN(C)S(=O)(=O)c1cc(-c2cccc(C(F)(F)F)c2)cnc1-c1nc2cc(C(F)(F)C(F)(F)F)nnc2n1C [Compound 2-9]
control efficacy (control rate), activity level [1]: A (the control rate is 100%) | insecticidal efficacy (corrected mortality rate), activity level [2]: A (the corrected mortality rate is 100%) | insecticidal efficacy (corrected mortality rate), activity level [3]: A (the corrected mortality rate is 100%)

CCNS(=O)(=O)c1cc(C2CC2)cnc1-c1nc2cc(C(F)(F)F)cnc2n1C [Compound 1-2]
control efficacy (control rate), activity level [1]: A (the control rate is 100%) | insecticidal efficacy (corrected mortality rate), activity level [2]: A (the corrected mortality rate is 100%) | insecticidal efficacy (corrected mortality rate), activity level [3]: A (the corrected mortality rate is 100%)

CN(C)S(=O)(=O)c1cc(NCC2CC2)cnc1-c1nc2cc(C(F)(F)F)cnc2n1C [Compound 1-25]
control efficacy (control rate), activity level [1]: A (the control rate is 100%) | insecticidal efficacy (corrected mortality rate), activity level [2]: A (the corrected mortality rate is 100%) | insecticidal efficacy (corrected mortality rate), activity level [3]: A (the corrected mortality rate is 100%)

CN(C)S(=O)(=O)c1cc(NC(=O)OC(C)(C)C)cnc1-c1nc2cc(C(F)(F)C(F)(F)F)nnc2n1C [Compound 2-16]
control efficacy (control rate), activity level [1]: A (the control rate is 100%) | insecticidal efficacy (corrected mortality rate), activity level [2]: A (the corrected mortality rate is 100%) | insecticidal efficacy (corrected mortality rate), activity level [3]: A (the corrected mortality rate is 100%)

CC(=O)Nc1cnc(-c2nc3cc(C(F)(F)F)cnc3n2C)c(S(=O)(=O)N(C)C)c1 [Compound 1-27]
control efficacy (control rate), activity level [1]: A (the control rate is 100%) | insecticidal efficacy (corrected mortality rate), activity level [2]: A (the corrected mortality rate is 100%) | insecticidal efficacy (corrected mortality rate), activity level [3]: A (the corrected mortality rate is 100%)

CN(C)S(=O)(=O)c1ccc(Br)nc1-c1nc2cc(C(F)(F)F)ncc2n1C [Compound 9-1]
control efficacy (control rate), activity level [1]: A (the control rate is 100%) | insecticidal efficacy (corrected mortality rate), activity level [2]: A (the corrected mortality rate is 100%) | insecticidal efficacy (corrected mortality rate), activity level [3]: A (the corrected mortality rate is 100%)

CN(C)S(=O)(=O)c1cc(-c2ccc(F)cc2)cnc1-c1nc2cc(C(F)(F)F)ccn2n1 [Compound 5-5]
control efficacy (control rate), activity level [1]: A (the control rate is 100%) | insecticidal efficacy (corrected mortality rate), activity level [2]: A (the corrected mortality rate is 100%) | insecticidal efficacy (corrected mortality rate), activity level [3]: A (the corrected mortality rate is 100%)

COc1cncc(-c2cnc(-c3nc4cc(C(F)(F)F)cnc4n3C)c(S(=O)(=O)N(C)C)c2)c1 [Compound 1-72]
control efficacy (control rate), activity level [1]: A (the control rate is 100%) | insecticidal efficacy (corrected mortality rate), activity level [2]: A (the corrected mortality rate is 100%) | insecticidal efficacy (corrected mortality rate), activity level [3]: A (the corrected mortality rate is 100%)

CNS(=O)(=O)c1cc(-c2ccc(F)cc2)cnc1-c1nc2cc(C(F)(F)F)ccn2n1 [Compound 5-4]
control efficacy (control rate), activity level [1]: A (the control rate is 100%) | insecticidal efficacy (corrected mortality rate), activity level [2]: A (the corrected mortality rate is 100%) | insecticidal efficacy (corrected mortality rate), activity level [3]: A (the corrected mortality rate is 100%)

CN(C)S(=O)(=O)c1cc(Br)cnc1-c1nc2ccc(C(F)(F)F)cn2n1 [Compound 5-11]
control efficacy (control rate), activity level [1]: A (the control rate is 100%) | insecticidal efficacy (corrected mortality rate), activity level [2]: A (the corrected mortality rate is 100%) | insecticidal efficacy (corrected mortality rate), activity level [3]: A (the corrected mortality rate is 100%)
